Reference: PubChem BioAssay AID602196 (INSERM, 2012)
This is a random part of about 23,000 deposited reagents. Of all reagents, 455 (2%) are marked active. 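Active includes both protection and sensitisation; some change values fall well beyond the stated -50 to +50 range.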 Entries without a mark were called inactive. Not all columns of the deposit are shown. No sequences are given here. Not stated in the record: the amount of reagent.

Assay: 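Genes whose knock-down alters cisplatin killing of lung cancer cells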
Cells: human A549 lung cancer cells
Knock-down reagent: siRNA pair against human genes
Time to read-out: 48 h transfection before cisplatin; time from cisplatin to read-out not stated
Treatment: cisplatin at a dose killing half of control-siRNA cells; exact dose and duration not given
Detection: 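Shift in cisplatin death relative to control siRNA, from -50 (all cells die) to +50 (no cells die); siRNAs harmful on their own scored 0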
Scale: two-siRNA summed score (-2 to +2): higher = both siRNAs protect from cisplatin killing; -2 means both sensitise; mean protection from cisplatin (shift in death): higher = protection from cisplatin killing
Active means: 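siRNAs harmful alone (LDH or WST-1) get 0; others get +1 for less and -1 for more cisplatin killing; genes are active when the two siRNAs give the same sign, summing to ±2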
Meaning of the calls: active = both siRNAs shift cisplatin killing the same way; inactive = no consistent shift, or siRNA harmful alone

RNF139 → two-siRNA summed score (-2 to +2) = -2 (active); mean protection from cisplatin (shift in death) (%) = -23.3
RFK → two-siRNA summed score (-2 to +2) = 0; mean protection from cisplatin (shift in death) (%) = 5
LOC147166 → two-siRNA summed score (-2 to +2) = 0; mean protection from cisplatin (shift in death) (%) = 1.5
NUTF2P4 → two-siRNA summed score (-2 to +2) = 0; mean protection from cisplatin (shift in death) (%) = 2.8
ESRP1 → two-siRNA summed score (-2 to +2) = 0; mean protection from cisplatin (shift in death) (%) = 13.4
TIPE3 → two-siRNA summed score (-2 to +2) = 1; mean protection from cisplatin (shift in death) (%) = 10.6
CHIT1 → two-siRNA summed score (-2 to +2) = -1; mean protection from cisplatin (shift in death) (%) = 9.2
SGCB → two-siRNA summed score (-2 to +2) = 0; mean protection from cisplatin (shift in death) (%) = -1.4
RNF6 → two-siRNA summed score (-2 to +2) = 0; mean protection from cisplatin (shift in death) (%) = -2.4
LOC339970 → two-siRNA summed score (-2 to +2) = 0; mean protection from cisplatin (shift in death) (%) = 21.5
PPARGC1A → two-siRNA summed score (-2 to +2) = -1; mean protection from cisplatin (shift in death) (%) = -6.6
COL5A3 → two-siRNA summed score (-2 to +2) = 0; mean protection from cisplatin (shift in death) (%) = 1.9
SNRNP70 → two-siRNA summed score (-2 to +2) = 0; mean protection from cisplatin (shift in death) (%) = 1.3
TOMM20 → two-siRNA summed score (-2 to +2) = 0; mean protection from cisplatin (shift in death) (%) = 1.1
HECTD3 → two-siRNA summed score (-2 to +2) = 0; mean protection from cisplatin (shift in death) (%) = 14.6
GSTA3 → two-siRNA summed score (-2 to +2) = 0; mean protection from cisplatin (shift in death) (%) = 5.4
HSPA9 → two-siRNA summed score (-2 to +2) = 0; mean protection from cisplatin (shift in death) (%) = 2.8
PABIR2 → two-siRNA summed score (-2 to +2) = 0; mean protection from cisplatin (shift in death) (%) = 3.2

Laid out differently: entries from further up.
RNF139
- two-siRNA summed score (-2 to +2): -2 (active)
- mean protection from cisplatin (shift in death) (%): -23.3

RFK
- two-siRNA summed score (-2 to +2): 0
- mean protection from cisplatin (shift in death) (%): 5

LOC147166
- two-siRNA summed score (-2 to +2): 0
- mean protection from cisplatin (shift in death) (%): 1.5

NUTF2P4
- two-siRNA summed score (-2 to +2): 0
- mean protection from cisplatin (shift in death) (%): 2.8

ESRP1
- two-siRNA summed score (-2 to +2): 0
- mean protection from cisplatin (shift in death) (%): 13.4

Next results follow:
LOC440114 → two-siRNA summed score (-2 to +2) = 0; mean protection from cisplatin (shift in death) (%) = 24
PLA2G10 → two-siRNA summed score (-2 to +2) = -2 (active); mean protection from cisplatin (shift in death) (%) = -30.4
LOC389672 → two-siRNA summed score (-2 to +2) = -1; mean protection from cisplatin (shift in death) (%) = 0
CIMIP1 → two-siRNA summed score (-2 to +2) = 1; mean protection from cisplatin (shift in death) (%) = 0.7
LOC440058 → two-siRNA summed score (-2 to +2) = 1; mean protection from cisplatin (shift in death) (%) = 19.1
PPIL3 → two-siRNA summed score (-2 to +2) = 1; mean protection from cisplatin (shift in death) (%) = 9.7
LOC440329 → two-siRNA summed score (-2 to +2) = 1; mean protection from cisplatin (shift in death) (%) = 34.4
CBR3 → two-siRNA summed score (-2 to +2) = 0; mean protection from cisplatin (shift in death) (%) = -7.7
IFNA7 → two-siRNA summed score (-2 to +2) = 0; mean protection from cisplatin (shift in death) (%) = 12.6
LOC440418 → two-siRNA summed score (-2 to +2) = 1; mean protection from cisplatin (shift in death) (%) = 7.2
ROGDI → two-siRNA summed score (-2 to +2) = 0; mean protection from cisplatin (shift in death) (%) = 5.8
ATL3 → two-siRNA summed score (-2 to +2) = 0; mean protection from cisplatin (shift in death) (%) = -1.4
CHCHD5 → two-siRNA summed score (-2 to +2) = 0; mean protection from cisplatin (shift in death) (%) = 22.8
H1-8 → two-siRNA summed score (-2 to +2) = 0; mean protection from cisplatin (shift in death) (%) = -2.1
NR3C1 → two-siRNA summed score (-2 to +2) = 0; mean protection from cisplatin (shift in death) (%) = 2.9
SLC26A9 → two-siRNA summed score (-2 to +2) = 0; mean protection from cisplatin (shift in death) (%) = 9.3
RPL36 → two-siRNA summed score (-2 to +2) = 0; mean protection from cisplatin (shift in death) (%) = 5.7
GATA3-AS1 → two-siRNA summed score (-2 to +2) = 0; mean protection from cisplatin (shift in death) (%) = 19
FLT1 → two-siRNA summed score (-2 to +2) = 0; mean protection from cisplatin (shift in death) (%) = -3.7
LOC440272 → two-siRNA summed score (-2 to +2) = 1; mean protection from cisplatin (shift in death) (%) = 14.9
TEKTL1 → two-siRNA summed score (-2 to +2) = 1; mean protection from cisplatin (shift in death) (%) = 11.9
RAX2 → two-siRNA summed score (-2 to +2) = 1; mean protection from cisplatin (shift in death) (%) = 0.5
